In patent US20230173113A1 (Technische Universität München, priority 2020, published 2023):

Experiment: general procedure: Fmoc solid-phase peptide synthesis; CTC-resin (0.9 mmol/g)
Details: late stage modification step

Row | Substance | step yield | step yield (In relation to the crude product)
1 | Cyclo(YRGDLAYp(NMe)K(pentynoic acid)) | 57% | 
2 | Cyclo(YRGDLAYp(NMe)K) |  | 10.2%
